# Experimental data reported in patent US20090012270A1 (MEDICAL RESEARCH COUNCIL, published 2009).
# These are yes or no findings as the source states them, for the method shown. Some binding calls cover weakened binding; strength is not graded here. Sequences can lack the tags named with a protein.
# T1: rat OX2 receptor homolog 1 (OX2RH1) (rat) (UniProt Q9ES58)
# T1 sequence: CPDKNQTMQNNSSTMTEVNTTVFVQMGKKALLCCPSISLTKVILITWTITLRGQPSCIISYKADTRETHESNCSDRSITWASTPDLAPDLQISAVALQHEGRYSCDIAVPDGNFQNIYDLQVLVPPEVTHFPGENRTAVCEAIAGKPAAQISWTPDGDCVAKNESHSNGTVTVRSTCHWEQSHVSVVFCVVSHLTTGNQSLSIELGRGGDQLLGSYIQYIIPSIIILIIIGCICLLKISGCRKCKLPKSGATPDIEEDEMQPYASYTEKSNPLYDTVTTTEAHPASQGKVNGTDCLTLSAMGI
# B1: recombinant rat OX2-CD4 fusion protein on fluorescent beads (ligand, UniProt P04218 31-232, looked up)
# chain: QVEVVTQDERKLLHTTASLRCSLKTTQEPLIVTWQKKKAVGPENMVTYSKAHGVVIQPTYKDRINITELGLLNTSITFWNTTLDDEGCYMCLFNMFGSGKVSGTACLTLYVQPIVHLHYNYFEDHLNITCSATARPAPAISWKGTGSGIENSTESHSHSNGTTSVTSILRVKDPKTQVGKEVICQVLYLGNVIDYKQSLDKGFASTSITAYKSEGESAEFSFPLNLGEESLQGELRWKAEKAPSSQSWITFSLKNQKVSVQKSTSNPKFQLSETLPLTLQIPQVSLQFAGSGNLTLTLDRGILYQEVNLVVMKVTQPDSNTLTCEVMGPTSPKMRLILKQENQEARVSRQEKVIQVQAPEAGVWQCLLSEGEEVKMDSKIQVLSKGLNQT
# Target: T1, rat OX2 receptor homolog 1 (OX2RH1) (rat)
# Assay: fluorescent bead assay with rat peritoneal macrophages
binder,measurement,value
B1,binding,binds
